Out of some 340,000 compounds screened, about 4,500 (1.3%) were called active. The inconclusive results got no clear call from the source; some entries with a clear call stand among them for comparison. Calls come from the whole dose curve; as a rule, active = well fitted inhibition curve with a large enough effect; inconclusive = small, poorly fitted or top-dose-only effect, or another doubt; inactive = no such curve, though single readings can be large or run the other way. Potencies beside an inconclusive call are fits to weak or partial responses and may not hold up.
Each compound was assayed against DNA polymerase beta (Homo sapiens) (UniProt P06746) (assay: qHTS Assay for Inhibitors of DNA Polymerase Beta). Details: Pol beta primer extension/strand displacement, fluorescence kinetic; activity change, negative = inhibition: at 114 µM (top of the series).
In short: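 Reaction started by 50 nM substrate onto compound-treated Pol beta (10 nM, 15 min preincubation, room temperature); plates read at 0 min and 10 min. Normalized concentration-effect data fitted by four-parameter Hill equation.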
In the case of `COc1ccc2nc(-c3ccco3)c(-c3ccco3)nc2c1`, the Potency is reported as active: 22.4 µM. For `CC(NC(=O)c1ccccc1)C(=O)N/N=C/c1ccco1` (stereo not given), the Potency was “inactive”. For `COc1ccc(NC(=O)c2ccc3nc[nH]c3c2)c(OC)c1`, the Potency was inconclusive: 50.1 µM [inhibitor, partial curve]. With `Cc1ccc(-c2ccc(CCC(=O)O)n2Cc2ccco2)cc1` the Potency was inconclusive: 12.6 µM [inhibitor, full curve, poor fit]. In the case of `Cc1ccc(-c2ccc(C)c(N)c2C)c(C)c1N`, the Potency is reported as inconclusive: 89.1 µM [inhibitor, single point]. In the case of `COc1ccc(C)cc1NC(=O)C1CCN(S(=O)(=O)c2cc(Br)cc3c2N(C(C)=O)CC3)CC1`, the Potency is reported as inconclusive: 44.7 µM [inhibitor, partial curve]. For `O=C(Cn1c2ccccc2c(=O)c2ccccc21)N/N=C/c1cc([N+](=O)[O-])ccc1N1CCCCCC1`, the Potency was active: 2.51 µM. In the case of `COC(=O)C(C)Oc1ccc2c(c1)O/C(=C\c1ccco1)C2=O` (stereo not given), the Potency is reported as inconclusive: 31.6 µM [inhibitor, full curve]. For `CC(=O)N1CCSc2ccc(S(=O)(=O)Nc3cccc(C)c3)cc21`, the Potency was inconclusive: 8.91 µM [inhibitor, single point]. With `CCOC(=O)C1CCN(c2c(NCCN3CCN(c4ccccc4)CC3)c(=O)c2=O)CC1` the Potency was inconclusive: 89.1 µM [inhibitor, single point]. In the case of `O=C(C1CCCCC1)N1CCCn2c1nc1ccccc12`, the Potency is reported as inconclusive: 0.1 µM [inhibitor, full curve, poor fit]. With `O=c1c(=O)n(-c2ccc(F)c(F)c2)ccn1Cc1ccc(F)cc1Cl` the Potency was “inactive”. With `CCCCc1c(O)nc(SCC(=O)NC(C)(C)C)n(-c2ccccc2C)c1=O` the Potency was inconclusive: 31.6 µM [inhibitor, single point]. In the case of `CCOc1ccccc1NC(=O)CN(C)S(=O)(=O)c1ccc(C(=O)N2CCOCC2)s1`, the Potency is reported as “inactive”. For `COc1ccc(CC(=O)Nc2nc(-c3cccc([N+](=O)[O-])c3)cs2)cc1`, the Potency was “inactive”. In the case of `CCOC(=O)c1noc2ncn(CC(=O)Nc3cccc(C(F)(F)F)c3)c(=O)c12`, the Potency is reported as inconclusive: 89.1 µM [inhibitor, single point]. With `O=C(CCCSc1nnc(Nc2ccccc2F)s1)N1CCOCC1` the Potency was inconclusive: 100 µM [inhibitor, single point]. In the case of `COCc1cc(C)nc2c1C(=O)NC(c1ccc(F)cc1)N2Cc1ccccc1` (stereo not given), the Potency is reported as inconclusive: 15.8 µM [inhibitor, single point]. `COC(=O)c1cc2oc(C)cc2n1CC(=O)Nc1ccc(C(C)C)cc1` was tested, and the Potency was “inactive”. `CCCCNC(=O)c1ccc2c(=O)n(Cc3ccc(OC)cc3)c(=O)[nH]c2c1` was tested, and the Potency was “inactive”. With `COCC(C)NC(=O)CCS(=O)(=O)c1nc(-c2ccc(OC)cc2)cc(C(F)(F)F)n1` (stereo not given) the Potency was inconclusive: 39.8 µM [inhibitor, single point]. For `Cc1nn(C)cc1NC(=O)Cn1nc(C(F)(F)F)cc1C1CC1`, the Potency was inconclusive: 3.98 µM [inhibitor, single point]. With `Cc1noc(C)c1S(=O)(=O)N(CC(=O)O)c1ccc2c(c1)OCO2` the Potency was inconclusive: 35.5 µM [inhibitor, partial curve]. `Cc1cc(C)c2c(N)c(C(=O)Nc3nccs3)sc2n1` was tested, and the Potency was active: 39.8 µM. With `Cc1csc(NC(=O)c2cn3ccccc3n2)n1` the Potency was inconclusive: 39.8 µM [inhibitor, single point]. In the case of `CC(=O)OC1COC(N2CCc3ccccc32)C(OC(C)=O)C1OC(C)=O` (stereo not given), the Potency is reported as inconclusive: 22.4 µM [inhibitor, full curve]. `COc1ccccc1C(=O)N/N=C/c1cnc2ccccc2n1` was tested, and the Potency was “inactive”. In the case of `O=C(CCC(=O)c1ccc(Oc2ccccc2)cc1)Nc1ccc(C(=O)O)cc1`, the Potency is reported as inconclusive: 31.6 µM [inhibitor, partial curve]. In the case of `N#C/C(=C(O)\C=C\c1ccccc1)c1nc2ccccc2[nH]1`, the activity change, negative = inhibition is reported as inconclusive: -62.9% [inhibitor]. `O=C(O)c1cccc(NC(=O)c2ccc(COc3ccc(Cl)cc3)cc2)c1` was tested, and the Potency was inconclusive: 79.4 µM [inhibitor, single point]. With `CCN=c1scc(C)n1/N=C/c1ccc(O)c(O)c1O` the Potency was active: 10 µM. `CSc1nnc(C)c(/C=C/Nc2ccc(F)cc2)n1` was tested, and the Potency was inconclusive: 79.4 µM [inhibitor, single point]. In the case of `CCc1ccccc1NS(=O)(=O)c1ccc2[nH]cc(C(=O)N(CC)Cc3ccccc3)c(=O)c2c1`, the Potency is reported as inconclusive: 56.2 µM [inhibitor, partial curve]. In the case of `O=C(NCCCc1ccccc1)c1cncc(Br)c1`, the Potency is reported as inconclusive: 50.1 µM [inhibitor, partial curve]. With `CCc1ccc(C2CC(=O)c3c([nH]c(C(=O)OC4CCCC4)c3C)C2)cc1` (stereo not given) the Potency was “inactive”. With `Clc1cccc(Cl)c1Cn1cnc2c(N3CCCCCC3)ncnc21` the Potency was inconclusive: 70.8 µM [inhibitor, single point]. With `COc1ccccc1CNS(=O)(=O)N(C)C` the Potency was inconclusive: 12.6 µM [inhibitor, partial curve]. With `Nc1nc(SCC(=O)Nc2ccc(Br)cc2F)n[nH]1` the Potency was inconclusive: 89.1 µM [inhibitor, single point]. In the case of `Cc1nc2sc3c(c2c(=O)o1)CCC3`, the Potency is reported as inconclusive: 39.8 µM [inhibitor, single point]. With `Cc1ccc2[nH]c(=O)c(CN(Cc3ccccc3Cl)C(=O)N3CCOCC3)cc2c1` the Potency was inconclusive: 89.1 µM [inhibitor, single point]. With `O=C(O)C(O)c1ccco1` (stereo not given) the Potency was active: 2.24 µM. With `COC(=O)Nc1ccc(S(=O)(=O)N2CCCC(C(=O)N3CCC(C)CC3)C2)cc1` (stereo not given) the Potency was inconclusive: 89.1 µM [inhibitor, single point]. `C#CCOC(=O)C1C2C=CC(C2)C1C(=O)O` (stereo not given) was tested, and the Potency was inconclusive: 0.1 µM [inhibitor, full curve, poor fit]. `O=C(O)CN1CCN(Cc2ccccc2)C1=O` was tested, and the Potency was inconclusive: 12.6 µM [inhibitor, partial curve]. In the case of `CCCc1ccc(O)c(N=Cc2cc(Br)cc(OCC)c2O)c1`, the Potency is reported as active: 20 µM.
% is set by controls: 0 for no effect and ±100 for the full control effect; potency is the fitted concentration of half-maximal effect.
